Results of single-concentration screens

Protein sequences, listed by entry. Tags and fused reporters are not part of them. Residues count along the entry.
UniProt A4I591, 1-473: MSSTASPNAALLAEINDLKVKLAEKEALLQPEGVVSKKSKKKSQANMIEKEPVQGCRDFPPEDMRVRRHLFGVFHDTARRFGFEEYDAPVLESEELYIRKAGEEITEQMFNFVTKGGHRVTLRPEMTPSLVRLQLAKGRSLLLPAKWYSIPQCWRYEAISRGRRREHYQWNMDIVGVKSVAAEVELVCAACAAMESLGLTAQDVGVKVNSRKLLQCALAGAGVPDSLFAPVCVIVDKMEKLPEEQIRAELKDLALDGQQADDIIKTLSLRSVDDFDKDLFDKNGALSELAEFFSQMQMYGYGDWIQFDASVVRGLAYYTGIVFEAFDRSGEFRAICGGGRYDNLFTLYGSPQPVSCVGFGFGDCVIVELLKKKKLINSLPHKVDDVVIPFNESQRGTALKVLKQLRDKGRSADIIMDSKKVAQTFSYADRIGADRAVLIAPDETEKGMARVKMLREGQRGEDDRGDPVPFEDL
UniProt P9WFT3, whole entry: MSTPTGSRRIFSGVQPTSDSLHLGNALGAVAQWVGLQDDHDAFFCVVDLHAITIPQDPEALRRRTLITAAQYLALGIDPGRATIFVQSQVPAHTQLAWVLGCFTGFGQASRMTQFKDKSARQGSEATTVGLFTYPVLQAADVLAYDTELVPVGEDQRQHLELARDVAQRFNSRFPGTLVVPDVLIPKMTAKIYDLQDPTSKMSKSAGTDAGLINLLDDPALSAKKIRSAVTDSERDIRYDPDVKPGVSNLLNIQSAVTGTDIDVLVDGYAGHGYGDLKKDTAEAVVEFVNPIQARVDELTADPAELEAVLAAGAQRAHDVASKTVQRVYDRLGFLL
UniProt P9WNZ1, whole entry: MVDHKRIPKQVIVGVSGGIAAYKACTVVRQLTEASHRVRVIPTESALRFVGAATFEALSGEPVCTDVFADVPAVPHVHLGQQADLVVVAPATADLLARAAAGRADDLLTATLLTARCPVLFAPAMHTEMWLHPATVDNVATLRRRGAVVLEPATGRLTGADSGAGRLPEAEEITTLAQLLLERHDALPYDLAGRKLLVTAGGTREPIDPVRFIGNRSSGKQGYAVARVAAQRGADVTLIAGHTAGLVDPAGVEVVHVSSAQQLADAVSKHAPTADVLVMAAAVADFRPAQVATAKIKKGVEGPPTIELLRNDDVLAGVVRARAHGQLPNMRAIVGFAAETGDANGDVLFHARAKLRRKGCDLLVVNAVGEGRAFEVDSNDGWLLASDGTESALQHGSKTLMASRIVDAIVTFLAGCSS

Results are given as percent effect. The controls that fix the scale are not given in the record; negative values are as filed. This is an unselected part of the compounds tested. A dash means the value is not listed here; it may have been measured.

LiHisRS: 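Histidine-tRNA ligase, Leishmania infantum (UniProt A4I591). Enzyme assay of histidyl-tRNA synthetase; the read-out is not stated. Tested at 30 µM. Higher reads as stronger inhibition (inferred: compounds with an IC50 in retests scored well above the rest). The assay is labelled LdHisRS but filed under L. infantum. Size under these conditions: about 69,000 compounds, about 410 of them at 50% or above in at least one test.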
MtTrpRS: 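Tryptophan-tRNA ligase, Mycobacterium tuberculosis (UniProt P9WFT3). Enzyme assay of tryptophanyl-tRNA synthetase; the read-out is not stated. Compounds at 10 µM. Direction is not recorded; retested compounds ran higher, which suggests that high means inhibition. Size under these conditions: about 65,000 compounds, about 64 of them at 50% or above in at least one test.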
Toxoplasma: 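Assay of Toxoplasma gondii numbers, read through their beta-galactosidase reporter with a colour substrate. Concentration: 10 µM. The record gives no direction; the compounds picked for IC50 retests had high values, so higher reads as fewer parasites. Size under these conditions: about 67,000 compounds, about 260 of them at 50% or above in at least one test.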
CoaBC: 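Coenzyme A biosynthesis protein CoaBC, Mycobacterium tuberculosis (UniProt P9WNZ1). Enzyme assay of CoaBC with a phosphate dye (Biomol Green) read at 650 nm. Compounds at 30 µM. Direction is inferred from only a few compounds that gave an IC50; most scored high, so higher reads as stronger inhibition. Most strong results did not repeat in a second test. About 67,000 compounds were tested under these conditions; 0.06% (about 40) showed 50% or more at least once.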

structure,LiHisRS,MtTrpRS,Toxoplasma,CoaBC
Cc1nn(C)c(C)c1C1CCCN1Cc1nc(-c2ccco2)oc1C (stereo not drawn),6.154%,-1.458%,-10.34%,13.15%
Cn1ccc(CN2CCCC23CCN(Cc2ccccc2F)CC3)n1,9.91%,-,-,2.475%
COc1ccc(CN2CCc3sccc3C2C)cc1CN1CCOCC1 (stereo not drawn),7.092%,-3.473%,-,-5.767%
CNC(=O)Cc1ccc(NC(=O)NC2(c3cccc(F)c3)CC2)cc1,14.58%,-7.005%,-0.6073%,-2.762%
CCC(CC)c1cc(C(=O)N2CCN(CC(N)=O)CC2)on1,14.47%,-2.285%,-0.1189%,3.871%
CC(C)(C)n1nc(C(=O)NCC2(C(N)=O)CCOCC2)cc1C1CC1,19.35%,4.103%,-15.02%,-0.9828%
Cc1ccc(O)c(CNC2CCCN(Cc3noc(C4CC4)n3)C2)n1 (stereo not drawn),12.73%,-6.198%,2.202%,5.867%
Cc1cccc(CN2C(=O)CCC23CCN(C(=O)c2ccco2)CC3)c1,15.38%,2.471%,4.771%,7.079%
CCc1ccc(S(=O)(=O)NCCOc2ccc3nnc(C)n3n2)s1,31.71%,-2.673%,6.799%,4.198%
Cc1ccsc1C(=O)N1CC[C@H]2CO[C@H](CN(C)C)[C@H]2C1,7.895%,-6.673%,-,-2.24%
CC(C)OCCCNC(=O)c1cccnc1N1CCOCC1,-121.2%,-2.389%,14.83%,-1.015%
Cc1cc(C2CCCN(C(=O)COc3ccccc3F)C2)n[nH]1 (stereo not drawn),-1.587%,7.873%,9.263%,-4.862%
CCc1cnc(CN(C)C2CCN(CC(=O)Nc3cc(C)on3)C2)o1 (stereo not drawn),13.56%,4.814%,-25.56%,-1.312%
O=C(C1CC=CC1)N1CC[C@@H]2O[C@@H](COCC3CCOCC3)CC[C@@H]21,10.92%,3.3%,-,3.089%
CN1CC(=O)N(c2cccnc2)CC12CCN(C(=O)c1cccnc1)C2.O=C(O)C(F)(F)F.O=C(O)C(F)(F)F (stereo not drawn),-,-,3.846%,-
c1ccc(-c2noc([C@@H]3Cc4nc[nH]c4CN3)n2)cc1,2.778%,-9.413%,-4.865%,-4.74%
O=S(=O)(C1CC1)N1Cc2[nH]nc(COCC3CC3)c2C1,13.79%,-3.56%,-,-
c1ccc(-c2noc(C3CCN(CCCn4cncn4)CC3)n2)cc1,12.82%,-1.024%,1.175%,3.421%
Cc1noc(C)c1C(=O)N(Cc1ccsc1)CC1CCCO1 (stereo not drawn),11.2%,1.354%,-0.6602%,-2.439%
Cc1nn(C)c(C)c1CN(Cc1cccn1-c1ncccn1)C(C)C,1.408%,1.147%,7.132%,2.288%
CCn1cc(NC(=O)NCc2ccc3c(c2)OCO3)cn1,15.38%,-1.533%,1.102%,-12.87%
Cc1ccc(CNC(CN2CCN(C)CC2)c2ccccc2)cc1 (stereo not drawn),18.87%,-1.676%,0.2658%,-47.58%
CN1CCC(CNC(=O)NCc2ccc(N(C)C)cc2)CC1,11.43%,-0.2329%,-10.13%,-3.297%
Cc1ccc(CN2CCN(c3ncnc4[nH]cnc34)CC2CCO)cc1 (stereo not drawn),-16.24%,-0.343%,14.65%,-1.261%
CN1CCCC(c2cccc(CCC(=O)NCc3ccccn3)n2)C1 (stereo not drawn),13.54%,-,1.386%,7.353%
O=C(O)C1c2nc[nH]c2CCN1Cc1ccccc1-c1ccccc1 (stereo not drawn),28.8%,2.859%,8.039%,0.4878%
CS(=O)(=O)NC1CCc2c(ccc(=O)n2CC2CC2)C1 (stereo not drawn),9.489%,-1.233%,-0.4992%,-5.44%
O=C(C1CCC1)N1CCC(C(=O)N2CCC(c3ccc(F)cc3)C2)CC1 (stereo not drawn),0%,3.015%,7.545%,3.226%
O=C(c1ccc[nH]1)N1CCC(c2nccn2Cc2ccncc2)CC1,21.15%,1.212%,-0.9852%,10.87%
CC(C)c1ncc2c(n1)CN(Cc1cccc(OCC(N)=O)c1)CC2,13.6%,-1.101%,-6.493%,3.191%
CCc1c(C)n(CCOC)c2nc3ccccc3n2c1=O,18.68%,3.233%,3.634%,8.726%
C1CCCN(CC2CCCN(Cc3noc(C4CC4)n3)C2)CC1 (stereo not drawn),9.649%,16.38%,1.224%,14.55%
COc1cc(CNCCc2cnn(C)c2)cc2c1OCO2,20.18%,-3.952%,-8.421%,10.49%
Cc1cnn(C2CCCN(C(=O)c3cc4nc(C)ccc4o3)C2)c1 (stereo not drawn),6.481%,-0.4011%,-14.4%,5.526%
CN(C)S(=O)(=O)N1C[C@@H](OCc2ccccn2)[C@H]2OCCC[C@H]21,16.81%,0.07969%,-,6.526%
CCCc1noc(C(C)N2CC(n3cccn3)C2)n1 (stereo not drawn),11.84%,2.651%,0.8323%,-0.6452%
O=C(NCC1CCCO1)Nc1nnc(C(F)(F)F)s1 (stereo not drawn),1.205%,-0.9181%,-9.883%,8.657%
COc1cccc(CC(C)NC(=O)NC(C)C)c1 (stereo not drawn),6.25%,0.1142%,-9.508%,-0.2404%
OCCN1CCN(Cc2coc(-c3cccc(F)c3)n2)CC1,12.17%,2.629%,-13.32%,2.452%

3 of the entries, repeated:

With Cc1cc(C2CCCN(C(=O)COc3ccccc3F)C2)n[nH]1 (stereo not drawn) the screen gave LiHisRS: -1.587%; MtTrpRS: 7.873%; Toxoplasma: 9.263%; CoaBC: -4.862%.
With C1CCCN(CC2CCCN(Cc3noc(C4CC4)n3)C2)CC1 (stereo not drawn) the screen gave LiHisRS: 9.649%; MtTrpRS: 16.38%; Toxoplasma: 1.224%; CoaBC: 14.55%.
With CCc1c(C)n(CCOC)c2nc3ccccc3n2c1=O the screen gave LiHisRS: 18.68%; MtTrpRS: 3.233%; Toxoplasma: 3.634%; CoaBC: 8.726%.

From ChEMBL document CHEMBL3988442, “University of Dundee, Small-Polar-MMV Screening Library” (2021).